Results are given in words; binding and its absence hold for the method and conditions named.
Target: Est8, GDSL-motif esterase from Bacillus sp. K91 (Bacillus sp. K91)
Experiment: SEC; gel filtration on Superdex 75 10/300 GL in 20 mM Tris-HCl, 0.5 M NaCl pH 7.2, after Ni-NTA; both purified

binding: no binding
B1: Est8, GDSL-motif esterase from Bacillus sp. K91 (enzyme)
chain: MANHIYLAGDSTVQTYGDSTNQGGWGQFLGSHLPEHIQVINRAIGGRSSKTFVEEGRLQAILDVIEPDDWLFVQMGHNDASKNKPERYTEPYTTYKQYLKQYIAGAREKGAHPLLITPVARFHYENGVFLNDFPDYCIAMKQTAEEENVQLIDLMEKSLAFFTEKGEEKVYTYFMISEGINDYTHFTKKGANEMAKLVAKGIKELGLPLTESIIKER

From article PMC5947683
